{"source": "paper PMC2873443", "tested_on": "NF-kB p65 (RelA), subunit of p50-p65 + NF-kB p50, subunit of p50-p65", "experiment": "EMSA supershift", "conditions": "nuclear extract, basal and PMA-induced, basal higher in K562/Adr; EMSA: nuclear extract incubated 25 min with 32P probe; 6% PAGE, 0.5x TBE pH 8; temperature and salt not stated; protein in an extract; label: 32P (Klenow, [alpha-32P]-dCTP)", "note": "For at least one entry, the source does not settle the construct or the ends of the probe. At least one result comes from cells or an extract, where the contact may be indirect.", "data": [{"sequence": "AGCTATGTGGGTTTTCCCATGAGC (double strand) [IL6 promoter NF-kB oligonucleotide]", "values": [{"measurement": "binding result", "value": "binds"}]}]}
